The record followed here is patent publication US20160311931A1.

Amino acid sequences for entries named in this document (tags omitted). Residues count along the entry.
UniProt P01375, residues 77-233: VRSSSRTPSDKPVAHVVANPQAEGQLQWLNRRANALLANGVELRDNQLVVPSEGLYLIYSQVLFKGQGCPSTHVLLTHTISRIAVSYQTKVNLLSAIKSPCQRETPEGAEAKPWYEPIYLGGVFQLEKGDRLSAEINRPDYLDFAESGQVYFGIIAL
UniProt P51742, residues 77-233: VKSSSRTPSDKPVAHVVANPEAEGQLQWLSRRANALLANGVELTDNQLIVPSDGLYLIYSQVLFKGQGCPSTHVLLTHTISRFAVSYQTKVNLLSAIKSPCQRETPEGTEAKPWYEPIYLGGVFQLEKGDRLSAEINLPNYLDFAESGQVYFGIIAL

No constants are given. Whether binding was seen depends on the method and setting. Some results given as binding are weak or reduced against the parent protein; the word gives no strength.

Test [1] has as its target Recombinant human TNF-α (human) (UniProt P01375). The test can be described thus: ELISA.
Test [2] has as its target canine TNF-α (canine) (UniProt P51742). The test can be described thus: ELISA.

B1: chimeric 4C9 anti-TNF-α antibody, clone 6A9 (antibody, V domains shown)
VH: VQLQESGPSLVKPSQTLSLTCSVTGDSITSGFWNWIRKFPGNKFEYMGYISYSGRTYYNPSLKSRLSITRDTSKNQFYLQLNSVTAEDTATYYCARDANYVLDYWGQGTTLTVSS
VL: DIQLTQSPSSLAMSVGQKVTMNCKSSQSLLNSSTQKNYLAWFQQKPGQSPKLLVYFASARESGVPDRFIGSGSGTDFTLTISSVQAEDLADYFCQQHYRTPFTFGSGTKLEIKR
As for B1, the binding entry in test [1] and in test [2] was “binds” each time.
